The results in this text go back to publication PMC8891971.

Sequences of proteins named here, by UniProt entry; tags and fusion partners are left off.
UniProt O88477: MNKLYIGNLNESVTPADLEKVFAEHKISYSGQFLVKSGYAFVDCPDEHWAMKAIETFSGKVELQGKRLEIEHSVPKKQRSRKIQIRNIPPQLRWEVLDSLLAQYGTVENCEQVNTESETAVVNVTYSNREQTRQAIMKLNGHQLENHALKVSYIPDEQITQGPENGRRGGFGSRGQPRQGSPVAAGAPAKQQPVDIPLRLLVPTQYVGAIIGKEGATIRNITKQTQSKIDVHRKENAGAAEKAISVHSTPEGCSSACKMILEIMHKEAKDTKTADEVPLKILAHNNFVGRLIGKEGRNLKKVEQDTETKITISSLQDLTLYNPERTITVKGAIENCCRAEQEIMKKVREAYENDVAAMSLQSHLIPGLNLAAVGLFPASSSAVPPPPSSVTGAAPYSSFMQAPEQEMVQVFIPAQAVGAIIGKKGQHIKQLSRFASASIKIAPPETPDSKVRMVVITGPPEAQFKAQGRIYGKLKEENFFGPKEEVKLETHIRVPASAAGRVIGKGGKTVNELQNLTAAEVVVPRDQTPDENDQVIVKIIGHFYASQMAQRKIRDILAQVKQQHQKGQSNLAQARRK

This experiment has as its target insulin-like growth factor 2 mRNA-binding protein 1 (IGF2BP1), endogenous in mouse embryonic fibroblasts (mouse (endogenous in MEF)) (UniProt O88477). Description: co-IP; lysate in polysome lysis buffer (10 mM Hepes pH 7.0, 5 mM MgCl2, 100 mM KCl, 0.5% NP-40) incubated with anti-IMP-1 antibody and protein G paramagnetic particles at 4 °C; immunoprecipitate purified by IFAST; bound and unbound fractions analysed by Western blotting. For orientation: A western blot detects proteins with antibodies after separation by electrophoresis.

No constants are given. Whether binding was seen depends on the method and setting. Binding seen in cells or lysates may run through a third protein.

B1: Vinculin, endogenous in mouse embryonic fibroblasts (protein, UniProt Q64727 1-1066)
chain: MPVFHTRTIESILEPVAQQISHLVIMHEEGEVDGKAIPDLTAPVAAVQAAVSNLVRVGKETVQTTEDQILKRDMPPAFIKVENACTKLVQAAQMLQSDPYSVPARDYLIDGSRGILSGTSDLLLTFDEAEVRKIIRVCKGILEYLTVAEVVETMEDLVTYTKNLGPGMTKMAKMIDERQQELTHQEHRVMLVNSMNTVKELLPVLISAMKIFVTTKNSKNQGIEEALKNRNFTVEKMSAEINEIIRVLQLTSWDEDAWASKDTEAMKRALASIDSKLNQAKGWLRDPNASPGDAGEQAIRQILDEAGKVGELCAGKERREILGTCKMLGQMTDQVADLRARGQGASPVAMQKAQQVSQGLDVLTAKVENAARKLEAMTNSKQSIAKKIDAAQNWLADPNGGPEGEEQIRGALAEARKIAELCDDPKERDDILRSLGEIAALTSKLGDLRRQGKGDSPEARALAKQVATALQNLQTKTNRAVANSRPAKAAVHLEGKIEQAQRWIDNPTVDDRGVGQAAIRGLVAEGHRLANVMMGPYRQDLLAKCDRVDQLTAQLADLAARGEGESPQARALASQLQDSLKDLKAQMQEAMTQEVSDVFSDTTTPIKLLAVAATAPPDAPNREEVFDERAANFENHSGRLGATAEKAAAVGTANKSTVEGIQASVKTARELTPQVISAARILLRNPGNQAAYEHFETMKNQWIDNVEKMTGLVDEAIDTKSLLDASEEAIKKDLDKCKVAMANIQPQMLVAGATSIARRANRILLVAKREVENSEDPKFREAVKAASDELSKTISPMVMDAKAVAGNISDPGLQKSFLDSGYRILGAVAKVREAFQPQEPDFPPPPPDLEQLRLTDELAPPKPPLPEGEVPPPRPPPPEEKDEEFPEQKAGEVINQPMMMAARQLHDEARKWSSKGNDIIAAAKRMALLMAEMSRLVRGGSGTKRALIQCAKDIAKASDEVTRLAKEVAKQCTDKRIRTNLLQVCERIPTISTQLKILSTVKATMLGRTNISDEESEQATEMLVHNAQNLMQSVKETVREAEAASIKIRTDAGFTLRWVRKTPWYQ
In the case of B1, the binding result is “no binding”.
